From patent US20050130265
For part of these data: At least one result comes from cells or an extract, where the contact may be indirect. For part of these data: Construct, isoform or probe ends are uncertain for at least one entry.

Chains of the proteins cited; added tags and fusions are not shown. A line that says so, or that is headed by a name, gives the form on record, which may keep a tag or linker.
UniProt Q03267, other isoform, or with tags, fused parts or gaps: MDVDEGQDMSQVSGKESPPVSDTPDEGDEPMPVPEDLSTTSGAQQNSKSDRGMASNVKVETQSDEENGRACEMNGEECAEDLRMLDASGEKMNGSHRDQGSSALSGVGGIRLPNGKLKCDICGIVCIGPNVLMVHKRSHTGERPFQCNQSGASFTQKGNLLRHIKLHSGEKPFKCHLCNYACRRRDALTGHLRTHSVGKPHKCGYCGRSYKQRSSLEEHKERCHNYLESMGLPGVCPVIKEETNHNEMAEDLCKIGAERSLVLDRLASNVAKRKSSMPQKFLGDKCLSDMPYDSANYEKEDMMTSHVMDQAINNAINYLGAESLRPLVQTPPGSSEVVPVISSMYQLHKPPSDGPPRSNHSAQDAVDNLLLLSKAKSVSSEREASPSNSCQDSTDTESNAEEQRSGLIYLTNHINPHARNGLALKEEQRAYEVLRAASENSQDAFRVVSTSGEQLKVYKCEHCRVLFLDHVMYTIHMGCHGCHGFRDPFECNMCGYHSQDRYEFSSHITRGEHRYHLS
Ikaros Ik-2 (expression library clone) (Mus musculus), one chain, as listed by the source: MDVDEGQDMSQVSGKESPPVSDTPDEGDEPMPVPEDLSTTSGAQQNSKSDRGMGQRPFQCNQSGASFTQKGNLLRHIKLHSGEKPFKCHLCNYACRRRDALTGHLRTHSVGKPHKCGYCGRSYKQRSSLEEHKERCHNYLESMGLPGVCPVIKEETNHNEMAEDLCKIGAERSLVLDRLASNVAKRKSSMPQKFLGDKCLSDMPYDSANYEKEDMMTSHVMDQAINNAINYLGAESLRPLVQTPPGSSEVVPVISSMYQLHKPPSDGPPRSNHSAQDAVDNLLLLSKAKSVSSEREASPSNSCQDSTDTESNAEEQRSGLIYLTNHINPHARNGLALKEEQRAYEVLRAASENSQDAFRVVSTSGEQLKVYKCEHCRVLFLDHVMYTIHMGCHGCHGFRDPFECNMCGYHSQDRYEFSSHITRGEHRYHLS

Experiments:
Ikaros (GST fusion) = Ikaros (GST fusion) (UniProt Q03267); assay: EMSA; details: described as high affinity Ikaros site; 0.5 ug protein; purified recombinant protein; protein details: GST
[1] = molecular target: Ikaros (native complexes in thymus/spleen nuclear extract) (Mus musculus) (UniProt Q03267); assay: EMSA; details: four complexes in wild-type thymus and spleen extract; absent in Ikaros -/- spleen; abrogated by Ikaros antibody; protein in an extract; label: end-labeled
[2] = system: Ikaros Ik-2 (expression library clone) (Mus musculus); assay: binding assay; details: southwestern library screen; isolated Ikaros clone; protein in a lysate after overexpression; label: radiolabeled

“TCAGCTTTTGGGAATACCCTGTCA (double strand) [IkBS1]”: binds (Ikaros (GST fusion)).

“TCAGCTTTTGGGAATGTATTCCCTGTCA (double strand) [IK-BS4]”: binds [1].

“AGAAGTTTCCATAAGATGATGAATGGGGGTGGCAGAGA (double strand) [CD3 delta enhancer element (multimerized)]”: binds [2].
